SMILES strings stand for the structures.

From patent US20120156139A1, “ISOTOPICALLY LABELED NEUROCHEMICAL AGENTS AND USES THEROF FOR DIAGNOSING CONDITIONS AND DISORDERS” (priority 2009, published 2012) come the findings set out here.

This data set is described as follows: 13C acquisition with deuterium decoupling / proton NOE and decoupling at 11.8 T. The data set is classed as physicochemical.

With `[2H]C([2H])(O)[13C]([2H])([2H])[N+](C)(C)C` [[1,1,2,2-D4,2-^13C]-choline], under “in water”, the “Enhancement of the carbon-13 signal at position 2 by deuterium decoupling” value is listed as 3 fold, the “Overall natural linewidth of the signal (split signal envelope) before deuterium decoupling” value is “about 100 Hz” and the “Overall natural linewidth of the signal with deuterium decoupling” value was “about 5 Hz”. Besides, the “Increase of signal-to-noise ratio of the 13C nucleus at position 2 by proton NOE and decoupling” value (proton irradiation prior to and during 13C acquisition) is reported as “factor of two”.
